Consider 9 molecules from patent publication US12729225B2, “Non-canonical SWI/SNF complex and uses thereof” (Dana-Farber Cancer Institute, Inc., priority 2018, dated 2026).

The subject of this data set is mSWI/SNF complexes. As to the kind of experiment: mSWI/SNF complex purification with HA-tagged baits and mass spectrometry (peptide counts). The arrangement: species or system human.
Where [1] appears, read: 293_HA-BRD7 bait purification, mass spectrometry, total peptides per co-purified protein.
Setting [2] is: 293_HA-BRD7 bait purification, mass spectrometry, unique peptides per co-purified protein.

B1: KRT9 (protein, UniProt P35527 1-623, looked up)
Keratin, type I cytoskeletal 9: MSCRQFSSSYLSRSGGGGGGGLGSGGSIRSSYSRFSSSGGGGGGGRFSSSSGYGGGSSRVCGRGGGGSFGYSYGGGSGGGFSASSLGGGFGGGSRGFGGASGGGYSSSGGFGGGFGGGSGGGFGGGYGSGFGGFGGFGGGAGGGDGGILTANEKSTMQELNSRLASYLDKVQALEEANNDLENKIQDWYDKKGPAAIQKNYSPYYNTIDDLKDQIVDLTVGNNKTLLDIDNTRMTLDDFRIKFEMEQNLRQGVDADINGLRQVLDNLTMEKSDLEMQYETLQEELMALKKNHKEEMSQLTGQNSGDVNVEINVAPGKDLTKTLNDMRQEYEQLIAKNRKDIENQYETQITQIEHEVSSSGQEVQSSAKEVTQLRHGVQELEIELQSQLSKKAALEKSLEDTKNRYCGQLQMIQEQISNLEAQITDVRQEIECQNQEYSLLLSIKMRLEKEIETYHNLLEGGQEDFESSGAGKIGLGGRGGSGGSYGRGSRGGSGGSYGGGGSGGGYGGGSGSRGGSGGSYGGGSGSGGGSGGGYGGGSGGGHSGGSGGGHSGGSGGNYGGGSGSGGGSGGGYGGGSGSRGGSGGSHGGGSGFGGESGGSYGGGEEASGSGGGYGGGSGKSSHS
Molecule B1 showed a Total (293_HA-BRD7: HA-BRD7 bait purification, total peptide count per co-purified protein) of 29. This molecule gave a Unique (293_HA-BRD7: HA-BRD7 bait purification, unique peptide count per co-purified protein) of 23.

B2: SNRNP40 (protein)
chain: MIEQQKRKGPELPLVPVKRQRHELLLGAGSGPGAGQQQATPGALLQAGPPRCSSLQAPIMLLSGHEGEVYCCKFHPNGSTLASAGFDRLILLWNVYGDCDNYATLKGHSGAVMELHYNTDGSMLFSASTDKTVAVWDSETGERVKRLKGHTSFVNSCYPARRGPQLVCTGSDDGTVKLWDIRKKAAIQTFQNTYQVLAVTFNDTSDQIISGGIDNDIKVWDLRQNKLTYTMRGHADSVTGLSLSSEGSYLLSNAMDNTVRVWDVRPFAPKERCVKIFQGNVHNFEKNLLRCSWSPDGSKIAAGSADRFVYVWDTTSRRILYKLPGHAGSINEVAFHPDEPIIISASSDKRLYMGEIQ
Take B2: the Total under setting [1] is reported as 3. Moreover, the Unique under setting [2] was 3.

B3: CAAP1 (protein, UniProt Q9H8G2 1-361, looked up)
Caspase activity and …: MTGKKSSREKRRKRSSQEAAAALAAPDIVPALASGSSGSTSGCGSAGGCGSVSCCGNANFSGSVTGGGSGGSCWGGSSVERSERRKRRSTDSSSVSGSLQQETKYILPTLEKELFLAEHSDLEEGGLDLTVSLKPVSFYISDKKEMLQQCFCIIGEKKLQKMLPDVLKNCSIEEIKKLCQEQLELLSEKKILKILEGDNGMDSDMEEEADDGSKMGSDLVSQQDICIDSASSVRENKQPEGLELKQGKGEDSDVLSINADAYDSDIEGPCNEEAAAPEAPENTVQSEAGQIDDLEKDIEKSVNEILGLAESSPNEPKAATLAVPPPEDVQPSAQQLELLELEMRARAIKALMKAGDIKKPA
For the molecule B3, the Total under setting [1] was determined as 3. The Unique under setting [2] came out at 3.

B4: PRPF19 (protein, UniProt Q9UMS4 2-504, looked up)
Pre-mRNA-processing factor 19: SLICSISNEVPEHPCVSPVSNHVYERRLIEKYIAENGTDPINNQPLSEEQLIDIKVAHPIRPKPPSATSIPAILKALQDEWDAVMLHSFTLRQQLQTTRQELSHALYQHDAACRVIARLTKEVTAAREALATLKPQAGLIVPQAVPSSQPSVVGAGEPMDLGELVGMTPEIIQKLQDKATVLTTERKKRGKTVPEELVKPEELSKYRQVASHVGLHSASIPGILALDLCPSDTNKILTGGADKNVVVFDKSSEQILATLKGHTKKVTSVVFHPSQDLVFSASPDATIRIWSVPNASCVQVVRAHESAVTGLSLHATGDYLLSSSDDQYWAFSDIQTGRVLTKVTDETSGCSLTCAQFHPDGLIFGTGTMDSQIKIWDLKERTNVANFPGHSGPITSIAFSENGYYLATAADDSSVKLWDLRKLKNFKTLQLDNNFEVKSLIFDQSGTYLALGGTDVQIYICKQWTEILHFTEHSGLTTGVAFGHHAKFIASTGMDRSLKFYSL
Turning to B4, under setting [1], the Total was 3. In addition, under setting [2], the Unique amounted to 3.

B5: NUP160 (protein, UniProt Q12769 1-1436, looked up)
Nuclear pore complex protein …: MLHLSAAPPAPPPEVTATARPCLCSVGRRGDGGKMAAAGALERSFVELSGAERERPRHFREFTVCSIGTANAVAGAVKYSESAGGFYYVESGKLFSVTRNRFIHWKTSGDTLELMEESLDINLLNNAIRLKFQNCSVLPGGVYVSETQNRVIILMLTNQTVHRLLLPHPSRMYRSELVVDSQMQSIFTDIGKVDFTDPCNYQLIPAVPGISPNSTASTAWLSSDGEALFALPCASGGIFVLKLPPYDIPGMVSVVELKQSSVMQRLLTGWMPTAIRGDQSPSDRPLSLAVHCVEHDAFIFALCQDHKLRMWSYKEQMCLMVADMLEYVPVKKDLRLTAGTGHKLRLAYSPTMGLYLGIYMHAPKRGQFCIFQLVSTESNRYSLDHISSLFTSQETLIDFALTSTDIWALWHDAENQTVVKYINFEHNVAGQWNPVFMQPLPEEEIVIRDDQDPREMYLQSLFTPGQFTNEALCKALQIFCRGTERNLDLSWSELKKEVTLAVENELQGSVTEYEFSQEEFRNLQQEFWCKFYACCLQYQEALSHPLALHLNPHTNMVCLLKKGYLSFLIPSSLVDHLYLLPYENLLTEDETTISDDVDIARDVICLIKCLRLIEESVTVDMSVIMEMSCYNLQSPEKAAEQILEDMITIDVENVMEDICSKLQEIRNPIHAIGLLIREMDYETEVEMEKGFNPAQPLNIRMNLTQLYGSNTAGYIVCRGVHKIASTRFLICRDLLILQQLLMRLGDAVIWGTGQLFQAQQDLLHRTAPLLLSYYLIKWGSECLATDVPLDTLESNLQHLSVLELTDSGALMANRFVSSPQTIVELFFQEVARKHIISHLFSQPKAPLSQTGLNWPEMITAITSYLLQLLWPSNPGCLFLECLMGNCQYVQLQDYIQLLHPWCQVNVGSCRFMLGRCYLVTGEGQKALECFCQAASEVGKEEFLDRLIRSEDGEIVSTPRLQYYDKVLRLLDVIGLPELVIQLATSAITEAGDDWKSQATLRTCIFKHHLDLGHNSQAYEALTQIPDSSRQLDCLRQLVVVLCERSQLQDLVEFPYVNLHNEVVGIIESRARAVDLMTHNYYELLYAFHIYRHNYRKAGTVMFEYGMRLGREVRTLRGLEKQGNCYLAALNCLRLIRPEYAWIVQPVSGAVYDRPGASPKRNHDGECTAAPTNRQIEILELEDLEKECSLARIRLTLAQHDPSAVAVAGSSSAEEMVTLLVQAGLFDTAISLCQTFKLPLTPVFEGLAFKCIKLQFGGEAAQAEAWAWLAANQLSSVITTKESSATDEAWRLLSTYLERYKVQNNLYHHCVINKLLSHGVPLPNWLINSYKKVDAAELLRLYLNYDLLEEAVDLVSEYVDAVLGKGHQYFGIEFPLSATAPMVWLPYSSIDQLLQALGENSANSHNIALSQKILDKLEDYQQKVDKATRDLLYRRTL
B5 gave a Total under setting [1] of 3. The same molecule registered a Unique under setting [2] of 3.

B6: RRP1 (protein, UniProt P56182 1-461, looked up)
Ribosomal RNA processing …: MVSRVQLPPEIQLAQRLAGNEQVTRDRAVRKLRKYIVARTQRAAGGFTHDELLKVWKGLFYCMWMQDKPLLQEELGRTISQLVHAFQTTEAQHLFLQAFWQTMNREWTGIDRLRLDKFYMLMRMVLNESLKVLKMQGWEERQIEELLELLMTEILHPSSQAPNGVKSHFIEIFLEELTKVGAEELTADQNLKFIDPFCRIAARTKDSLVLNNITRGIFETIVEQAPLAIEDLLNELDTQDEEVASDSDESSEGGERGDALSQKRSEKPPAGSICRAEPEAGEEQAGDDRDSGGPVLQFDYEAVANRLFEMASRQSTPSQNRKRLYKVIRKLQDLAGGIFPEDEIPEKACRRLLEGRRQKKTKKQKRLLRLQQERGKGEKEPPSPGMERKRSRRRGVGADPEARAEAGEQPGTAERALLRDQPRGRGQRGARQRRRTPRPLTSARAKAANVQEPEKKKKRRE
As to B6, the Total under setting [1] amounted to 3. Further, the Unique under setting [2] is listed as 3.

B7: NCLN (protein, UniProt Q969V3 43-563, looked up)
BOS complex subunit NCLN: AHEFTVYRMQQYDLQGQPYGTRNAVLNTEARTMAAEVLSRRCVLMRLLDFSYEQYQKALRQSAGAVVIILPRAMAAVPQDVVRQFMEIEPEMLAMETAVPVYFAVEDEALLSIYKQTQAASASQGSASAAEVLLRTATANGFQMVTSGVQSKAVSDWLIASVEGRLTGLGGEDLPTIVIVAHYDAFGVAPWLSLGADSNGSGVSVLLELARLFSRLYTYKRTHAAYNLLFFASGGGKFNYQGTKRWLEDNLDHTDSSLLQDNVAFVLCLDTVGRGSSLHLHVSKPPREGTLQHAFLRELETVAAHQFPEVRFSMVHKRINLAEDVLAWEHERFAIRRLPAFTLSHLESHRDGQRSSIMDVRSRVDSKTLTRNTRIIAEALTRVIYNLTEKGTPPDMPVFTEQMQIQQEQLDSVMDWLTNQPRAAQLVDKDSTFLSTLEHHLSRYLKDVKQHHVKADKRDPEFVFYDQLKQVMNAYRVKPAVFDLLLAVGIAAYLGMAYVAVQHFSLLYKTVQRLLVKAKTQ
Take B7: the Total under setting [1] is listed as 3. Besides, the Unique under setting [2] was determined as 3.

B8: TFB1M (protein, UniProt Q8WVM0 28-346, looked up)
Dimethyladenosine transferase …: QAAKQLSQNFLLDLRLTDKIVRKAGNLTNAYVYEVGPGPGGITRSILNADVAELLVVEKDTRFIPGLQMLSDAAPGKLRIVHGDVLTFKVEKAFSESLKRPWEDDPPNVHIIGNLPFSVSTPLIIKWLENISCRDGPFVYGRTQMTLTFQKEVAERLAANTGSKQRSRLSVMAQYLCNVRHIFTIPGQAFVPKPEVDVGVVHFTPLIQPKIEQPFKLVEKVVQNVFQFRRKYCHRGLRMLFPEAQRLESTGRLLELADIDPTLRPRQLSISHFKSLCDVYRKMCDEDPQLFAYNFREELKRRKSKNEEKEEDDAENYRL
In turn, B8 yielded a Total under setting [1] of 3. Under setting [2], the Unique is given as 3.

B9: METTL17 (protein, UniProt Q9H7H0 20-456, looked up)
Ribosome assembly protein …: VAPQARALAALVPGVTQVDNKSGFLQKRPHRQHPGILKLPHVRLPQALANGAQLLLLGSAGPTMENQVQTLTSYLWSRHLPVEPEELQRRARHLEKKFLENPDLSQTEEKLRGAVLHALRKTTYHWQELSYTEGLSLVYMAARLDGGFAAVSRAFHEIRARNPAFQPQTLMDFGSGTGSVTWAAHSIWGQSLREYMCVDRSAAMLVLAEKLLKGGSESGEPYIPGVFFRQFLPVSPKVQFDVVVSAFSLSELPSKADRTEVVQTLWRKTGHFLVLVENGTKAGHSLLMDARDLVLKGKEKSPLDPRPGFVFAPCPHELPCPQLTNLACSFSQAYHPIPFSWNKKPKEEKFSMVILARGSPEEAHRWPRITQPVLKRPRHVHCHLCCPDGHMQHAVLTARRHGRDLYRCARVSSWGDLLPVLTPSAFPPSTAQDPSES
The molecule B9 returned a Total under setting [1] of 3. The Unique under setting [2] is 3.
